Reference: the supplement of paper PMC4604168 (melanoma cell lines)
The list shows a part of the results. Single values are uncertain, as repeats are few or missing.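 Cells were imaged in 1,536-well plates, and nuclei stained with an antibody against cleaved PARP were counted against all DNA-stained nuclei to give the apoptosis fraction. Screening doses were chosen to leave most cells alive, and resting and induced cleaved-PARP levels differ strongly between cell lines.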

Tested on: COLO792
Test: cleaved PARP positive nuclei fraction relative to DMSO control; melanoma cells; higher = more apoptosis
Conditions: library dose: low library concentration; 72 h

| SMILES | cleaved PARP positive nuclei fraction |
| --- | --- |
| C[C@]12O[C@H](C[C@]1(O)CO)n1c3ccccc3c3c4c(c5c6ccccc6n2c5c31)CNC4=O [Lestaurtinib] + C[As](C)SC[C@H](NC(=O)CC[C@H](N)C(=O)O)C(=O)NCC(=O)O [Darinaparsin] (first compound 0.004 µM, partner dose 0.4 µM) | 90.1% |
| COc1ccc(COc2ccc(Cc3cnc(N)nc3N)cc2OC)cc1 + O=C(Oc1ccc([N+](=O)[O-])cc1)N1CCC(C(O)(c2ccc3c(c2)OCO3)c2ccc3c(c2)OCO3)CC1 [JZL184] (first compound 1 µM, partner dose 1 µM) | 124% |
| Cn1cc(C2=C(c3cn(C4CCN(Cc5ccccn5)CC4)c4ccccc34)C(=O)NC2=O)c2ccccc21 [Enzastaurin] + NC1(c2ccc(-c3nc4ccn5c(=O)[nH]nc5c4cc3-c3ccccc3)cc2)CCC1 [MK2206] (first compound 0.8 µM, partner dose 0.4 µM) | 109% |
| NC(=O)c1ccc(N(C(N)=O)c2c(F)cccc2F)nc1-c1ccc(F)cc1F + O=C(Oc1ccc([N+](=O)[O-])cc1)N1CCC(C(O)(c2ccc3c(c2)OCO3)c2ccc3c(c2)OCO3)CC1 [JZL184] (first compound 0.4 µM, partner dose 1 µM) | 87.1% |
| C[C@]12O[C@H](C[C@]1(O)CO)n1c3ccccc3c3c4c(c5c6ccccc6n2c5c31)CNC4=O [Lestaurtinib] + COc1ccc(COc2ccc(Cc3cnc(N)nc3N)cc2OC)cc1 [GW2580] (first compound 0.004 µM, partner dose 1 µM) | 134% |
| Cn1cc(C2=C(c3cn(C4CCN(Cc5ccccn5)CC4)c4ccccc34)C(=O)NC2=O)c2ccccc21 [Enzastaurin] + N.N.[Cl][Pt][Cl] [cisplatin] (first compound 0.8 µM, partner dose 1.6 µM) | 73.8% |
| C[As](C)SC[C@H](NC(=O)CC[C@H](N)C(=O)O)C(=O)NCC(=O)O [Darinaparsin] + COc1cc(N2CCC(N3CCN(C)CC3)CC2)ccc1Nc1ncc(Cl)c(Nc2ccccc2S(=O)(=O)C(C)C)n1 [NVP-TAE684] (first compound 0.4 µM, partner dose 0.08 µM) | 112% |
| C[C@]12O[C@H](C[C@]1(O)CO)n1c3ccccc3c3c4c(c5c6ccccc6n2c5c31)CNC4=O [Lestaurtinib] + Cn1nnc2c(C(N)=O)ncn2c1=O [temozolomide] (first compound 0.004 µM, partner dose 2 µM) | 181% |
| C[As](C)SC[C@H](NC(=O)CC[C@H](N)C(=O)O)C(=O)NCC(=O)O [Darinaparsin] + COc1ccc(Cl)c(Nc2nc3ccccc3nc2NS(=O)(=O)c2cccc(NC(=O)C(C)(C)N)c2)c1 [XL147] (first compound 0.4 µM, partner dose 0.8 µM) | 112% |
| COCC[n+]1c2c(n(Cc3cnccn3)c1C)C(=O)c1ccccc1C2=O + O=C(Oc1ccc([N+](=O)[O-])cc1)N1CCC(C(O)(c2ccc3c(c2)OCO3)c2ccc3c(c2)OCO3)CC1 [JZL184] (first compound 0.0004 µM, partner dose 1 µM) | 192% |
| COc1cc([C@@H]2c3cc4c(cc3[C@@H](O[C@@H]3O[C@@H]5CO[C@@H](C)O[C@H]5[C@H](O)[C@H]3O)[C@H]3COC(=O)[C@H]23)OCO4)cc(OC)c1O [etoposide] + C[As](C)SC[C@H](NC(=O)CC[C@H](N)C(=O)O)C(=O)NCC(=O)O [Darinaparsin] (first compound 0.02 µM, partner dose 0.4 µM) | 45.7% |
| C[As](C)SC[C@H](NC(=O)CC[C@H](N)C(=O)O)C(=O)NCC(=O)O [Darinaparsin] + Oc1cc(-c2nc(-c3ccccc3)[nH]c2-c2ccncc2)ccc1Cl [L779450] (first compound 0.4 µM, partner dose 0.2 µM) | 150% |
| N.N.[Cl][Pt][Cl] [cisplatin] + Oc1cc(-c2nc(-c3ccccc3)[nH]c2-c2ccncc2)ccc1Cl [L779450] (first compound 1.6 µM, partner dose 0.2 µM) | 197% |
| Cc1nc(Nc2ncc(C(=O)Nc3c(C)cccc3Cl)s2)cc(N2CCN(CCO)CC2)n1 [dasatanib] + O=C(Oc1ccc([N+](=O)[O-])cc1)N1CCC(C(O)(c2ccc3c(c2)OCO3)c2ccc3c(c2)OCO3)CC1 [JZL184] (first compound 0.004 µM, partner dose 1 µM) | 262% |

Given with bars between the fields: part of the list above
SMILES | cleaved PARP positive nuclei fraction
Cn1cc(C2=C(c3cn(C4CCN(Cc5ccccn5)CC4)c4ccccc34)C(=O)NC2=O)c2ccccc21 [Enzastaurin] + N.N.[Cl][Pt][Cl] [cisplatin] (first compound 0.8 µM, partner dose 1.6 µM) | 73.8%
C[As](C)SC[C@H](NC(=O)CC[C@H](N)C(=O)O)C(=O)NCC(=O)O [Darinaparsin] + COc1cc(N2CCC(N3CCN(C)CC3)CC2)ccc1Nc1ncc(Cl)c(Nc2ccccc2S(=O)(=O)C(C)C)n1 [NVP-TAE684] (first compound 0.4 µM, partner dose 0.08 µM) | 112%
C[C@]12O[C@H](C[C@]1(O)CO)n1c3ccccc3c3c4c(c5c6ccccc6n2c5c31)CNC4=O [Lestaurtinib] + Cn1nnc2c(C(N)=O)ncn2c1=O [temozolomide] (first compound 0.004 µM, partner dose 2 µM) | 181%
C[As](C)SC[C@H](NC(=O)CC[C@H](N)C(=O)O)C(=O)NCC(=O)O [Darinaparsin] + COc1ccc(Cl)c(Nc2nc3ccccc3nc2NS(=O)(=O)c2cccc(NC(=O)C(C)(C)N)c2)c1 [XL147] (first compound 0.4 µM, partner dose 0.8 µM) | 112%
